The values below come from publication PMC10874384.

Protein sequences, listed by entry. Tags and fused reporters are not part of them. Lines headed by an entry give the natural chain unless they say otherwise; changes in a name come on top.
UniProt Q09490: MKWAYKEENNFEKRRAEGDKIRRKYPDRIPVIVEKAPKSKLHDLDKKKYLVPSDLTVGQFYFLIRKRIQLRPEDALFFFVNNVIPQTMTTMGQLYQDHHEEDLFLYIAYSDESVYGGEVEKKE
UniProt Q9U389: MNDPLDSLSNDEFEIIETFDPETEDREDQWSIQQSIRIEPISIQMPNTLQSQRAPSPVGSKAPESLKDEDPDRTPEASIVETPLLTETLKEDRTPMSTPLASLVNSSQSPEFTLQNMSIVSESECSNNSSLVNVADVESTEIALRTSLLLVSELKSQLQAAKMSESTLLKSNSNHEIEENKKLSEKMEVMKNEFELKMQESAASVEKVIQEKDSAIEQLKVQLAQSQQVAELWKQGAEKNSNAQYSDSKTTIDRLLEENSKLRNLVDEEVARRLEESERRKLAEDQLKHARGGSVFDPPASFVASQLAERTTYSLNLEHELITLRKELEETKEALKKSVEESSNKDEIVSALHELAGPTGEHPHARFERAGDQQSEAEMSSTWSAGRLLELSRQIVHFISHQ

The target in this assay is LGG-1 (LC3, GABARAP, and GATE-16 family-1), yeast two-hybrid fusion (C. elegans) (UniProt Q09490). Put plainly: two-hybrid; DupLEX-A system: bait plasmid pEG202Gtwy and prey plasmid pJG4-5Gtwy in yeast EGY48 with the lacZ reporter plasmid pSH18-34; transformants on X-gal plates; which partner was bait is not stated.

No constants are given. Whether binding was seen depends on the method and setting. Binding calls can cover weak binding; strength is not graded here.

Regarding “ALLO-1 D11A, yeast two-hybrid fusion (from UniProt Q9U389)”, the binding entry is on record as “binds”.
As for “ALLO-1 D11A/E12A (FIR mutant), yeast two-hybrid fusion (from UniProt Q9U389)”, the binding entry was “binds”.
For the substance “ALLO-1 E12A, yeast two-hybrid fusion (from UniProt Q9U389)”, the binding entry was “binds”.
